Results from article doi:10.1101/871640.

What was measured:
[1] = biological target: T1, PBX1a (UniProt P40424); experiment: native gel or EMSA
T1 sequence: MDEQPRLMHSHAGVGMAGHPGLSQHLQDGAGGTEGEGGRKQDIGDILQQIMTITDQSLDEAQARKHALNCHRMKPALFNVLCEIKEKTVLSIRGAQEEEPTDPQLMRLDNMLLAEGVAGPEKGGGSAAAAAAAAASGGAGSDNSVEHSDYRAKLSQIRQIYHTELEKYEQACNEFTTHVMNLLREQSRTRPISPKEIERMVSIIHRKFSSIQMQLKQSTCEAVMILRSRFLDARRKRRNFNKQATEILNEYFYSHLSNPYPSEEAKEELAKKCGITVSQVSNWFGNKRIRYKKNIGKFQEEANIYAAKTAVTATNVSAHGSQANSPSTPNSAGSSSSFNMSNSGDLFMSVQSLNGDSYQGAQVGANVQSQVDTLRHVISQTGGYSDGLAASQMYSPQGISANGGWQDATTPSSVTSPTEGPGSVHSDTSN

[2] = biological target: T1, PBX1a; experiment: native gel or EMSA; remark: listed apart in the source

MEIS2 (isoform 1) (mouse)
binding [1]: binds | binding [2]: binds

Like-named read-outs stand apart in the source and are kept apart here. No constants are given. Whether binding was seen depends on the method and setting. Binding calls can cover weak binding; strength is not graded here.
